Assay results reported in the supplement of paper PMC10331698.
± gives the standard deviation of the averaged measurements. Most entries show no effect beyond the scatter of the controls.

Columns and labels:
Assay in all cases: level (log10 ratio to DMSO vehicle control); higher = higher biomarker level / cell amount than vehicle control
[1] = compound: O=S(=O)(O)C(F)(F)C(F)(F)C(F)(F)C(F)(F)C(F)(F)C(F)(F)C(F)(F)C(F)(F)F [Potassium perfluorooctanesulfonate]; details: 2200 nM; in DMSO
Procedure: (§1)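 BioMAP Diversity Plus panel of 12 human primary cell co-culture systems (3C, 4H, LPS, SAg, BT, BF4T, BE3C, CASM3C, HDF3CGF, KF3CT, MyoF, Mphg). Compounds were added 1 h before stimulation and left for 24 h (MyoF 48 h; BT 72 h for soluble read-outs or 6 d for IgG). Biomarkers were read by ELISA, cytotoxicity by SRB, PBMC viability and proliferation by Alamar Blue. Each well value was divided by the mean of 8 DMSO control wells on the same plate and log10 transformed; duplicate blinded samples were tested at 4 concentrations.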

[2] = compound: O=S(=O)(F)C(F)(F)C(F)(F)C(F)(F)C(F)(F)C(F)(F)C(F)(F)C(F)(F)C(F)(F)F [Perfluorooctanesulfonyl fluoride]; details: 2200 nM; in DMSO
Procedure: as §1

[3] = compound: FC(F)(F)C(F)(F)C(F)(F)CC1CO1 [1H,1H-Heptafluorobutyl epoxide]; details: 2200 nM; in DMSO
Procedure: as §1

[4] = compound: O=C(O)C(F)(F)C(F)(F)C(F)F [4H-Perfluorobutanoic acid]; details: in DMSO
Procedure: as §1

[5] = compound: OCC(F)(F)C(F)(F)C(F)(F)C(F)(F)C(F)(F)C(F)F [1H,1H,7H-Dodecafluoro-1-heptanol]; details: 2200 nM; in DMSO
Procedure: as §1

[6] = compound: C=CC(=O)OCC(F)(F)C(F)(F)C(F)(F)C(F)(F)C(F)(F)C(F)(F)C(F)(F)F [1H,1H-Perfluorooctyl acrylate]; details: 2200 nM; in DMSO
Procedure: as §1

[7] = compound: C=CC(F)(F)C(F)(F)C(F)(F)C(F)(F)C(F)(F)C(F)(F)C(F)(F)C(F)(F)C=C [1,8-Divinylperfluorooctane]; details: in DMSO
Procedure: as §1

[8] = compound: OCCCCC(F)(F)C(F)(F)C(F)(F)C(F)(F)F [4:4 Fluorotelomer alcohol]; details: 2200 nM; in DMSO
Procedure: as §1

[9] = compound: CO[Si](C)(CCC(F)(F)C(F)(F)C(F)(F)C(F)(F)C(F)(F)C(F)(F)F)OC [Dimethoxymethyl((perfluorohexyl)ethyl)silane]; details: in DMSO
Procedure: as §1

[10] = compound: FC(F)(F)C(F)(F)C(F)(F)CI [Heptafluorobutyl iodide]; details: 2200 nM; in DMSO
Procedure: as §1

[11] = compound: O=S(=O)(OCC(F)(F)F)C(F)(F)C(F)(F)C(F)(F)C(F)(F)F [2,2,2-Trifluoroethyl perfluorobutanesulfonate]; details: 2200 nM; in DMSO
Procedure: as §1

[12] = compound: NS(=O)(=O)C(F)(F)C(F)(F)C(F)(F)C(F)(F)C(F)(F)C(F)(F)C(F)(F)C(F)(F)F [Perfluorooctanesulfonamide]; details: in DMSO
Procedure: as §1

[13] = compound: C=C(C)C(=O)OCC(F)(F)C(F)(F)C(F)(F)C(F)(F)C(F)(F)C(F)(F)C(F)(F)F; details: in DMSO
Procedure: as §1

[14] = compound: O=P(O)(O)CCC(F)(F)C(F)(F)C(F)(F)C(F)(F)C(F)(F)C(F)(F)F [2-(Perfluorohexyl)ethylphosphonic acid]; details: 2200 nM; in DMSO
Procedure: as §1

[15] = compound: COC(=O)C(F)(F)C(F)(F)OC(F)(C(F)(F)F)C(F)(F)OC(F)=C(F)F [Methyl perfluoro(3-(1-ethenyloxypropan-2-yloxy)propanoate)]; details: in DMSO
Procedure: as §1

[16] = compound: NC(=O)C(F)(F)C(F)(F)F [Pentafluoropropionamide]; details: 2200 nM; in DMSO
Procedure: as §1

[17] = compound: O=S(=O)(O)C(F)(F)C(F)(F)C(F)(F)C(F)(F)C(F)(F)C(F)(F)C(F)(F)C(F)(F)F [Perfluorooctanesulfonic acid]; details: 2200 nM; in DMSO
Procedure: as §1

[18] = compound: NC(=O)C(F)(F)C(F)(F)C(F)(F)C(F)F; details: in DMSO
Procedure: as §1

Test System | level (log10) [1] | level (log10) [2] | level (log10) [3] | level (log10) ([4]; 2200 nM) | level (log10) ([4]; 6700 nM) | level (log10) ([4]; 20000 nM) | level (log10) ([4]; 60000 nM) | level (log10) [5] | level (log10) [6] | level (log10) ([7]; 740 nM) | level (log10) ([7]; 2200 nM) | level (log10) [8] | level (log10) ([9]; 740 nM) | level (log10) ([9]; 2200 nM) | level (log10) [10] | level (log10) [11] | level (log10) ([12]; 2200 nM) | level (log10) ([12]; 6700 nM) | level (log10) ([12]; 20000 nM) | level (log10) ([13]; 740 nM) | level (log10) ([13]; 2200 nM) | level (log10) [14] | level (log10) ([15]; 740 nM) | level (log10) ([15]; 2200 nM) | level (log10) [16] | level (log10) [17] | level (log10) ([18]; 2200 nM) | level (log10) ([18]; 6700 nM) | level (log10) ([18]; 20000 nM) | level (log10) ([18]; 60000 nM)
3C:HLA-DR | 0.0275 ± 0.026 | 0.0065 ± 0.021 | 0.0055 ± 0.025 | -0.0145 ± 0.0035 | -0.003 ± 0.0057 | -0.013 ± 0.011 | 0.011 ± 0.014 | 0.007 ± 0.0057 | 0.0075 ± 0.028 | 0.0035 ± 0.0021 | -0.008 ± 0.025 | 0.022 ± 0.041 | -0.007 ± 0.024 | 0.022 ± 0.0085 | -0.0145 ± 0.0021 | -0.0065 ± 0.0035 | 0.002 ± 0.0057 | -0.0115 ± 0.043 | -0.118 ± 0.082 | -0.008 ± 0.011 | -0.018 ± 0.013 | 0.0005 ± 0.025 | -0.003 ± 0.038 | -0.007 ± 0.028 | -0.0095 ± 0.0021 | 0.01 ± 0.0028 | -0.006 ± 0.04 | -0.006 ± 0.02 | -0.002 ± 0.016 | -0.005 ± 0.014
BF4T:CD54/ICAM-1 | 0.01 ± 0.038 | -0.001 ± 0.0014 | -0.012 ± 0.0057 | -0.0065 ± 0.016 | 0.002 ± 0.0085 | -0.0025 ± 0.032 | 0.0075 ± 0.032 | 0.013 ± 0.031 | 0.011 ± 0.0071 | -0.0165 ± 0.0064 | -0.0065 ± 0.018 | 0.0105 ± 0.015 | -0.01 ± 0.0071 | -0.0185 ± 0.0021 | 0.0095 ± 0.018 | -0.019 ± 0.011 | -0.0125 ± 0.028 | -0.029 ± 0.0014 | -0.06 ± 0.045 | 0.002 ± 0.011 | -0.002 ± 0.0028 | 0 ± 0.03 | -0.006 ± 0.021 | -0.0215 ± 0.025 | -0.015 ± 0.0085 | 0.009 ± 0.033 | 0.0065 ± 0.0021 | -0.0105 ± 0.015 | -0.0095 ± 0.022 | -0.0045 ± 0.0021
CASM3C:CXCL9/MIG | 0.0375 ± 0.08 | 0.002 ± 0.017 | 0.0035 ± 0.04 | 0.02 ± 0.059 | -0.0035 ± 0.028 | 0.0125 ± 0.00071 | 0.032 ± 0.017 | 0.015 ± 0.014 | 0.0055 ± 0.022 | 0.0075 ± 0.0092 | -0.006 ± 0.014 | 0.037 ± 0.044 | 0.028 ± 0.045 | -0.012 ± 0.011 | 0.0005 ± 0.03 | 0.0205 ± 0.00071 | 0.034 ± 0.0014 | -0.0005 ± 0.011 | -0.0305 ± 0.022 | 0.005 ± 0.018 | -0.003 ± 0.0057 | 0.036 ± 0.041 | 0.017 ± 0.024 | 0.001 ± 0.0042 | 0.007 ± 0.0042 | 0.025 ± 0.065 | 0.005 ± 0.025 | -0.0075 ± 0.021 | -0.0055 ± 0.0035 | 0.0005 ± 0.0078
LPS:CD106/VCAM-1 | -0.0045 ± 0.037 | 0.0005 ± 0.0064 | 0.0105 ± 0.042 | -0.0065 ± 0.03 | -0.018 ± 0.0071 | -0.0245 ± 0.011 | -0.002 ± 0.025 | -0.0045 ± 0.0078 | 0 ± 0.0057 | -0.0055 ± 0.0064 | -0.01 ± 0.0028 | 0.004 ± 0.017 | 0.001 ± 0.0028 | -0.007 ± 0.023 | -0.022 ± 0.014 | 0.0105 ± 0.049 | 0.0405 ± 0.005 | 0.0075 ± 0.0035 | 0.0115 ± 0.016 | -0.0285 ± 0.015 | -0.0175 ± 0.00071 | 0.002 ± 0.02 | -0.0555 ± 0.0035 | -0.0535 ± 0.011 | -0.0185 ± 0.0035 | 0.002 ± 0.0085 | -0.022 ± 0.038 | -0.0055 ± 0.025 | -0.023 ± 0.041 | -0.015 ± 0.025
MyoF:Collagen I | -0.005 ± 0.028 | -0.0125 ± 0.00071 | -0.0085 ± 0.0021 | 0.015 ± 0.0071 | -0.0215 ± 0.022 | -0.0115 ± 0.018 | -0.0115 ± 0.0092 | -0.0015 ± 0.005 | -0.005 ± 0.024 | 0 ± 0.038 | -0.003 ± 0.027 | 0.015 ± 0.011 | -0.006 ± 0.044 | 0.014 ± 0.031 | -0.01 ± 0.0014 | -0.0075 ± 0.012 | -0.013 ± 0.011 | -0.018 ± 0.014 | -0.236 ± 0.0028 | 0.0375 ± 0.023 | -0.001 ± 0.0014 | -0.0035 ± 0.0092 | -0.003 ± 0.0014 | -0.0055 ± 0.021 | 0.004 ± 0.023 | 0.0135 ± 0.022 | -0.018 ± 0.014 | -0.0115 ± 0.015 | -0.002 ± 0.02 | 0.006 ± 0.017
MyoF:alpha-SM Actin | -0.001 ± 0.035 | 0.0235 ± 0.015 | 0.013 ± 0.042 | -0.0265 ± 0.00071 | -0.0335 ± 0.047 | -0.0245 ± 0.049 | -0.026 ± 0.034 | -0.005 ± 0.0071 | 0.0195 ± 0.016 | -0.0005 ± 0.005 | -0.001 ± 0.0028 | 0.022 ± 0.018 | -0.0005 ± 0.015 | -0.0035 ± 0.025 | -0.0135 ± 0.083 | -0.008 ± 0.017 | -0.0105 ± 0.061 | -0.0355 ± 0.037 | -0.63 ± 0.1 | 0.005 | 0.0025 ± 0.018 | 0.03 ± 0.079 | 0.0245 ± 0.022 | -0.0055 ± 0.026 | -0.0075 ± 0.016 | 0.017 ± 0.042 | 0.0165 ± 0.023 | -0.006 ± 0.0057 | 0.0025 ± 0.023 | -0.002 ± 0.033
lMphg:SRB | 0.0055 ± 0.005 | -0.0025 ± 0.0035 | -0.003 ± 0.0014 | -0.007 ± 0.011 | -0.0035 ± 0.019 | -0.005 ± 0.0057 | 0.0025 ± 0.0021 | -0.01 ± 0.0057 | -0.012 ± 0.016 | -0.0075 ± 0.033 | 0.002 ± 0.0028 | -0.0015 ± 0.0078 | -0.006 ± 0.011 | -0.004 ± 0.0014 | 0.0055 ± 0.012 | -0.0035 ± 0.005 | -0.0185 ± 0.013 | -0.013 | -0.052 ± 0.0085 | -0.014 ± 0.0028 | -0.005 ± 0.013 | 0.0095 ± 0.019 | 0.0015 ± 0.0064 | -0.001 ± 0.0057 | 0.008 ± 0.0099 | -0.003 ± 0.0057 | 0.005 | -0.008 ± 0.0057 | -0.007 ± 0.0042 | -0.0005 ± 0.018
KF3CT:PAI-I | -0.01 ± 0.021 | -0.0085 ± 0.021 | -0.0015 ± 0.028 | 0.02 ± 0.0071 | 0.0015 ± 0.022 | 0.046 ± 0.02 | -0.0075 ± 0.073 | 0.002 ± 0.014 | -0.0065 ± 0.005 | 0.0035 ± 0.016 | 0.001 ± 0.0042 | -0.0075 ± 0.012 | -0.0085 ± 0.021 | 0.005 ± 0.03 | 0.004 ± 0.016 | -0.002 ± 0.0014 | 0.027 ± 0.021 | 0.03 ± 0.027 | -0.108 ± 0.054 | 0.0015 ± 0.016 | -0.004 ± 0.017 | -0.0405 ± 0.021 | 0.0115 ± 0.028 | 0.012 ± 0.0071 | 0.0015 ± 0.0021 | -0.003 ± 0.0042 | 0.014 ± 0.013 | -0.005 ± 0.0042 | -0.0085 ± 0.0064 | -0.007 ± 0.02
